Measured values reported in paper PMC3384007, “Crystal Structure of the VapBC Toxin–Antitoxin Complex from Shigella flexneri Reveals a Hetero-Octameric DNA-Binding Assembly” (Journal of Molecular Biology, 2011).
Results are given in words; binding and its absence hold for the method and conditions named. Some results given as binding are weak or reduced against the parent protein; the word gives no strength. Where a sequence is shown, tags or fusion partners need not be part of it.

What was measured:
[1] = biological target: T1, Shigella flexneri VapB antitoxin (His6-VapB) (Shigella flexneri) (UniProt O06663); experiment: SEC; purified VapBC complex on a 24-ml Superdex 200 10/300 GL column; peak at 12.7 ml, about 105 kDa, fitting a VapB4C4 hetero-octamer; both purified
T1 sequence: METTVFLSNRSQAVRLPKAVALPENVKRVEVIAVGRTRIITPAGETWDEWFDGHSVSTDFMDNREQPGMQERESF

[2] = biological target: T1, Shigella flexneri VapB antitoxin (His6-VapB) (Shigella flexneri); experiment: cross-linking; purified VapBC complex 1 mg/ml in 100 mM sodium borate pH 9.1 with dimethyl superimidate (DMSI), aliquots after 5-120 min, 15% Coomassie-stained SDS-PAGE; both purified
[3] = biological target: T1, Shigella flexneri VapB antitoxin (His6-VapB) (Shigella flexneri); experiment: crystal structure; His6-VapB:VapC complex, 7 mg/ml; crystals in 0.1 M Bis-Tris pH 5.5, 1 M ammonium sulfate, 0.5% (v/v) PEG 3350, 19 °C; 2.7 Å; four copies of each protein in the asymmetric unit (VapB4C4); both purified

Measured: binding

B1: Shigella flexneri VapC toxin (MvpT) (natural protein)
chain: MLKFMLDTNICIFTIKNKPASVRERFNLNQGKMCISSVTLMELIYGAEKSQMPERNLAVIEGFVSRIDVLDYDAAAATHTGQIRAELARQGRPVGPFDQMIAGHARSRGLIIVTNNTREFERVGGLRTEDWS
notes: Untagged in this construct, purified through His6-VapB; also called PIN domain
binds: all assays above
